The text below walks through data of article doi:10.1101/2023.08.07.552262.

Sequences of proteins named here, by UniProt entry; tags and fusion partners are left off.
UniProt P39687: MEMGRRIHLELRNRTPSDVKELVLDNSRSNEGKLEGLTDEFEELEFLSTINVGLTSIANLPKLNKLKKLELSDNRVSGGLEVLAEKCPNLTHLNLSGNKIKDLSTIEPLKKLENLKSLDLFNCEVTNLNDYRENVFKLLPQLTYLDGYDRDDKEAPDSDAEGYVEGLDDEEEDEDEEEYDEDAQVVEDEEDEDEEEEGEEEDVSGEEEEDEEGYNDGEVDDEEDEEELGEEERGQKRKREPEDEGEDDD
UniProt Q15717: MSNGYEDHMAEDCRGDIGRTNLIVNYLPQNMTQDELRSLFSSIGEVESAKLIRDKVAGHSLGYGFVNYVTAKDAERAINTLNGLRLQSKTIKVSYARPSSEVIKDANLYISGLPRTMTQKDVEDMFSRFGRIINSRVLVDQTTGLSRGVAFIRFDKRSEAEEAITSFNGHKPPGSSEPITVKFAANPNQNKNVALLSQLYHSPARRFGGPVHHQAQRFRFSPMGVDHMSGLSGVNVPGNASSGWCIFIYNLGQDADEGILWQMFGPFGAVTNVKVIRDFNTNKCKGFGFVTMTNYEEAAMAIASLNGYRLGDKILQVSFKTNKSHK

Assay [1] has as its target PHAPI (human (endogenous in HeLa)) (UniProt P39687). Put plainly: co-IP.
The target in assay [2] is T1, Transportin-2 (human (endogenous in HeLa)) (UniProt O14787).
T1 sequence: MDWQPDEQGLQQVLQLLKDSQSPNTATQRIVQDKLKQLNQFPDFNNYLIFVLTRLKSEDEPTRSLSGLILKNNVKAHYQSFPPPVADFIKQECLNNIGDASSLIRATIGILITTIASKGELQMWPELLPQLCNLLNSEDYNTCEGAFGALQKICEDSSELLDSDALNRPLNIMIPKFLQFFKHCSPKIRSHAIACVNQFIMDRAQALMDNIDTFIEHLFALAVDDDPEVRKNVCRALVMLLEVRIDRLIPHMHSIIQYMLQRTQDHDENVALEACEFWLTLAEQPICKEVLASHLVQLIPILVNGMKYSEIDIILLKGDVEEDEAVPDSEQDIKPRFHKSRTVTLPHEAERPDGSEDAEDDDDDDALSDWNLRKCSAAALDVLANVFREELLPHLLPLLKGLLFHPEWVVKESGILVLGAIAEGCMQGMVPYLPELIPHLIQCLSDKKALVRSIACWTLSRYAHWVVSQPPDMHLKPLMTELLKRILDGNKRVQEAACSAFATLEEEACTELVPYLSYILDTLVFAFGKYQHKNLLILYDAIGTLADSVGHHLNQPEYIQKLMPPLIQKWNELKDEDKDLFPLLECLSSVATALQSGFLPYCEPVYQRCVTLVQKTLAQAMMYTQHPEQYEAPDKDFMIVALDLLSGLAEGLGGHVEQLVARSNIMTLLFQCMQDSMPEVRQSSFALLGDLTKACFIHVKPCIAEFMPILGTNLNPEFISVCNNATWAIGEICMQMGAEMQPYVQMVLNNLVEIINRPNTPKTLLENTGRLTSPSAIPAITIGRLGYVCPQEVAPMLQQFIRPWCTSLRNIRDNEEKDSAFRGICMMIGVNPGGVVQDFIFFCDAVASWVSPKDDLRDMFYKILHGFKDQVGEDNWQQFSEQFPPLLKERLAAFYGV
Put plainly: co-IP.

These are yes or no findings as the source states them, for the method shown. In cells and extracts the contact can be indirect. Some binding calls cover weakened binding; strength is not graded here.

For the substance GFP-HuR^wt (from UniProt Q15717 1-326), the binding result in assay [1] and in assay [2] was “binds” in each case.
